The text below walks through data of PMC7658359.

Protein sequences, listed by entry. Tags and fused reporters are not part of them. Lines headed by an entry give the natural chain unless they say otherwise; changes in a name come on top.
UniProt Q9LQQ4: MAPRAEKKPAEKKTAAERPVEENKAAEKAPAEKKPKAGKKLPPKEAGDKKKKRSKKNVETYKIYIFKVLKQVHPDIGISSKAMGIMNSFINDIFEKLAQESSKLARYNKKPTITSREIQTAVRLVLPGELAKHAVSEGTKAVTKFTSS
UniProt Q9C944: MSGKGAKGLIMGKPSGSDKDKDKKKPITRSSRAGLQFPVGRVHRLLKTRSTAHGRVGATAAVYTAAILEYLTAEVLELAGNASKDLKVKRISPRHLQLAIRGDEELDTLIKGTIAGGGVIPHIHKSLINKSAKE

These are yes or no findings as the source states them, for the method shown. Some entries that bind do so weakly or less than the wild type.

The assay has as its target Arabidopsis histone H2B (HTB1) (Arabidopsis thaliana) (UniProt Q9LQQ4). As to the kind of experiment: SEC; co-purification of the co-expressed H2A.Z-H2B dimer from bacteria: SP column, Heparin column, then size exclusion in 20 mM Tris-HCl pH 8.0, 1 M NaCl.

Take “Arabidopsis histone variant H2A.Z (HTA9) (from UniProt Q9C944 1-134)”: the binding result is “binds”.
